Measured values published in PubChem BioAssay AID1347423 (Functional Genomics Laboratory (NCATS/FGL), 2020).
About 210 (0.4%) of roughly 52,000 sequences were called active.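 The calls were made as follows: active = gene whose silencing raises cell survival under the drug, median off-target-corrected z-score across its silencing RNAs 2 or more; inactive = the rest.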 Some of the results follow.

Assay: Resistance to Poly (ADP-Ribose) Polymerase inhibitor: Gene Identification via Genome-wide siRNA Screen
Conditions: mouse BRCA2 R2336H ES cells, olaparib, CellTiter-Glo viability; stronger effect = higher value
Method in brief: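 Mouse BRCA2 R2336H ES cells were reverse-transfected with siRNA (20 nM final), treated at 48 h with 500 nM olaparib, and read by CellTiter-Glo after 72 h. Scores: MAD-based z per siRNA, median per gene, seed off-target correction.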

Row | Sequence | z-score
1 | CCUACCAUACCAUGAGCAGTT against Pou4f3 | inactive: 0.754
2 | GGAGAGCACCGAUGAAAAUTT against Mcam | inactive: 0.541
3 | GGUUAGGCACAAAUAAGUUTT against B230206H07Rik | inactive: -0.771
4 | CCAAGAUGCACAGUGAUAATT against Pknox2 | inactive: -0.434
5 | GGCUCUGAAUAAACUCCUCTT against Olfr1013 | inactive: -0.531
6 | GGAAAGCAAAAAAAACUGUTT against Tnfaip8 | inactive: 0.788
7 | GGCCUCCUCUCACAAGUAUTT against Tubb3 | inactive: -0.184
8 | GCAGAUUCGCUGCCUGAUGTT against Snapc4 | inactive: 0.0254
9 | GGCUCAACGGGAUUACUUUTT against Pgd | inactive: -0.592
10 | GCCUGUAAUCCCAUCAUCUTT against Taar5 | inactive: -0.000944
11 | GGAUAUCAUUUCAUCUUGUTT against Hist1h3f | inactive: 2.21
12 | CCUCCUGCCACAUUCUUUCTT against AU022252 | inactive: -0.783
13 | GGGCACCUAUUCAGAUACCTT against Mtap2 | inactive: 0.64
14 | GGUACUCAAUGCAAGAAAUTT against 1500041J02Rik | inactive: 0.35
15 | CCAGUUACUAUGAGAAUGUTT against Yars | inactive: 0.247
16 | GGGUGACUGGAAUGACAUCTT against Galnt2 | inactive: 0.215
17 | GGCUGUAUUUGGACAAAGCTT against Nxt2 | inactive: -1.63
18 | GCAACACAAACACUGGCUATT against D930020B18Rik | inactive: -1.99
19 | CGCCUCAUCAUCUCGAUUCTT against Cnga3 | inactive: -0.593
20 | GGCAAUAUGAAGGAGGUUUTT against Ckm | inactive: -1.64
21 | GGUUUCUUAGAUUAGCUAGTT against Map3k12 | inactive: 1.25
22 | GGAUAACAUAACUUUGGAUTT against D19Ertd737e | inactive: 1.28
23 | GGUCAACACCUUAGAAACUTT against Lyn | inactive: -1.05
24 | GCCCUCCGAGAAAAACAUCTT against Gjb5 | inactive: 0.324
25 | CCUACUGGAAAAGAUAAUUTT against Stfa1 | inactive: 0.692
26 | GUUGAGGACUUCUUGCUGGTT against Cmar | inactive: -1.03

Row | Sequence | z-score
27 | GCAAAACAGAAUCAUCCUCTT against Taar6 | inactive: 1.49
28 | GGAAUUUAUGGAUAGAGGATT against BC026432 | inactive: -0.0536
29 | GCUACUGCAUUCUCUAUCATT against 1700029I08Rik | inactive: 0.509
30 | CGGCUGCAUUUCAACAAGGTT against Snrp1c | inactive: -2.59
31 | CGGCGAGUUCAGAAACAGCTT against Dab2ip | inactive: 1.1
32 | GCUAUGUAACACACCGCUGTT against AW046014 | inactive: 1.61
33 | GGAUGUCAGUAAUCAAUAGTT against Oxct1 | inactive: 0.26
34 | GGUAACUUUGAACUGAUCCTT against 1700030J22Rik | inactive: 0.77
35 | GGAUCUAUGACAAAAGAAGTT against Snx5 | inactive: 0.335
36 | CGCUCAAAAAUGGAUUCAATT against C130052G03Rik | inactive: 1.27
37 | CCAGAACGAAUCCCACUGUTT against Cklfsf8 | inactive: -2.47
38 | CCAGAACUAGCAAUAAAUATT against Noxa1 | inactive: 0.0574
39 | GGUGCUUGGGAAUUUUGAUTT against Gpsm2 | inactive: -0.908
40 | GGUCAAGCUCUUCUGCCUCTT against 6330414G21Rik | inactive: -0.832
41 | GGCUCUUCAACCUCUUACUTT against Ddost | inactive: 0.402
42 | GGAGAGAUGCCUUUUAAGUTT against 5730403M16Rik | inactive: 0.0441
43 | CUCGCUAGAGAAAGACAGATT against Olfr111 | inactive: -1.18
44 | GGGUUCGAUGUUGAAAAAGTT against Lzic | inactive: -0.876
45 | GGGAGAGGACCUCAAUGAATT against Mobk1b | inactive: 1.98
46 | GCAACCGCGUCACAUUGAATT against Bicc1 | inactive: 0.124
47 | GCAGAUGGCACAAUAUGAATT against Ppy | inactive: -0.258
48 | GCUCAUACCUAUCUCAAGGTT against Tnfsf9 | inactive: 0.63
49 | GGUGGAAGUCUCCAAGACATT against Tatdn1 | inactive: 0.948
50 | GGGAAUGUUCUAUAACUCATT against Prep | inactive: 0.417
51 | GGCAUCUCUCCAAUAACCUTT against Fbxw2 | inactive: -0.731
52 | GGACAUAGCAUCUUCACUUTT against Mpp3 | inactive: -0.506

Row | Sequence | z-score
53 | CGACCUGUGGGAAGAUAUUTT against Apoa5 | inactive: 0.999
54 | CCAACAUCUGCGUGUUUGCTT against 2810055F11Rik | inactive: -0.0242
55 | GCAUGUCCUCUAUCUUCUCTT against V1rh8 | inactive: -1.22
56 | GGAAGAGCACCUCCAGUCATT against Zfp313 | inactive: -2.84
57 | GGUAUCAUGAUCACUGUUUTT against Slc30a8 | inactive: 1.05
58 | CGAGAAUCUGCCUCAAUUGTT against 1110001A12Rik | inactive: 0.417
59 | GGAUAUACAUCUGAAGAUGTT against 4930548G07Rik | inactive: 0.5
60 | GGAAGACAGAAAUGAAGAUTT against Enah | inactive: -1.33
61 | GGCCAAAGAAGAAAGUGACTT against Opn3 | inactive: -0.692
62 | GGUCAGUGACAUUAUCAAUTT against V1rf3 | inactive: 2.02
63 | ACCGGAUCCAUUCACCUACTT against Fxyd1 | inactive: 0.186
64 | GGCUAAUAGACUUAUUAGGTT against 5730403B10Rik | inactive: 0.736
65 | GGUCCAAUUUUAUAACAGUTT against Dmtf1 | inactive: 0.683
66 | CCGUAUCAUUUCACUGCUCTT against Abca16 | inactive: 1.25
67 | GGAAGAGUUGGAAAUUUACTT against 1110015E22Rik | inactive: 0.0768
68 | GGAGGUAUACAGUAAGGAGTT against Fbxo32 | inactive: -0.0151
69 | GCGGGCCAUAAAGAGACAUTT against Timm17a | inactive: 0.0558
70 | CGUCCAUCAAACGAUCACCTT against Alox5 | inactive: 0.425
71 | CCCUACUCGAAUUUAUAGCTT against 1810017F10Rik | inactive: 0.231
72 | CGAGGUCAAUAUCAUUCCATT against Serpinb11 | inactive: 0.759
73 | GGCAAACCUCAAUGAGUUUTT against 4933402B14Rik | inactive: 1.05
74 | GCUUCAGCCAUUUCACCUUTT against 1500026D16Rik | inactive: 0.938
75 | GGCUUAGUAAGUGCAAAUATT against 2010208K18Rik | inactive: -1.15
76 | GCUCAUAGGCCUCAUCGUUTT against Piwil1 | inactive: -0.0313
77 | GGAACUGCUAAUCAACCAUTT against Zmynd10 | inactive: -1.55
78 | GGUCAUUGAUGGCUUUUUUTT against Mus81 | inactive: -0.876

Row | Sequence | z-score
79 | CCAAUAUGGUUUGUGGACUTT against 3010021M21Rik | inactive: 1.23
80 | GGACACAGAUAGAAAUACUTT against Glo1 | inactive: 0.208
81 | GGAAUCCUCAUUCUGGAUGTT against Abcg8 | inactive: 0.783
82 | GGGCCACAGCUUAAUACUGTT against Ptov1 | inactive: -1.1
83 | GGACAGAAAGAUUGUGAUCTT against Arhgap12 | inactive: 0.949
84 | CGGUCAAGGACAGGAAGUGTT against Eif4b | inactive: -1.15
85 | GGAACAACUGAGAAGCACCTT against Hist1h2bc | inactive: 0.551
86 | ACCUUUGUCCUUUUGUUGUTT against Defb15 | inactive: -1.23
87 | GGCACUUUGAUUGUACAAUTT against Dyrk4 | inactive: 0.391
88 | GGGAACAGCCUUCACAAUGTT against Pomt2 | inactive: -0.953
89 | GCCCGAUUUGGCCUAAGUGTT against BC029214 | inactive: -2.77
90 | GCAGUUCGUAAAAAGGAAATT against 2810429O05Rik | inactive: -0.0848
91 | GCUAUUUGCACUGAAAUAGTT against B230365F16Rik | inactive: 0.931
92 | GGAUGUGCGAUAUAAACCATT against Prlpb | inactive: -1.03
93 | GGUCUUUGUCCUCAUUUUCTT against Olfr1203 | inactive: 0.784
94 | GGGUUACACAUCAUUUUGGTT against Golph3 | inactive: 0.872
95 | GGCCAUUACCCAUGAGACUTT against Cd63 | inactive: -1.44
96 | CCACUUGCGUGUACCACUUTT against 9530008L14Rik | inactive: -0.429
97 | GCUCCAAAUUAAAUUUUGCTT against Isgf3g | inactive: 0.286
98 | GGGAAAAUUCCAGAAUUGUTT against Serpinb9c | inactive: 0.98
99 | GGAUCUUUCUUUUCUCUCUTT against Rab6b | inactive: -0.123
100 | GGAUUUAUUUCCGAUUCGATT against A530023G15Rik | inactive: -0.846
101 | GGGAAACUGUAUUAAUCUCTT against Foxc1 | inactive: -0.267
102 | GCCGCUAUGUUGAUGGACUTT against 5730454B08Rik | inactive: -0.156
103 | CCGGGAAUAUGACCAGUACTT against Cd3g | inactive: -0.45

Records 31 through 34, reprinted for reference:
Row | Sequence | z-score
31 | CGGCGAGUUCAGAAACAGCTT against Dab2ip | inactive: 1.1
32 | GCUAUGUAACACACCGCUGTT against AW046014 | inactive: 1.61
33 | GGAUGUCAGUAAUCAAUAGTT against Oxct1 | inactive: 0.26
34 | GGUAACUUUGAACUGAUCCTT against 1700030J22Rik | inactive: 0.77
